Measurements published in paper PMC11808628.
No constants are given. Whether binding was seen depends on the method and setting. Some entries that bind do so weakly or less than the wild type. For some assays here: Sequences can lack the tags named with a protein. Each block holds one binder with its values, some of them ahead of it.

By UniProt entry, the sequences of proteins in these tests, tags left out.
UniProt Q9WTS6: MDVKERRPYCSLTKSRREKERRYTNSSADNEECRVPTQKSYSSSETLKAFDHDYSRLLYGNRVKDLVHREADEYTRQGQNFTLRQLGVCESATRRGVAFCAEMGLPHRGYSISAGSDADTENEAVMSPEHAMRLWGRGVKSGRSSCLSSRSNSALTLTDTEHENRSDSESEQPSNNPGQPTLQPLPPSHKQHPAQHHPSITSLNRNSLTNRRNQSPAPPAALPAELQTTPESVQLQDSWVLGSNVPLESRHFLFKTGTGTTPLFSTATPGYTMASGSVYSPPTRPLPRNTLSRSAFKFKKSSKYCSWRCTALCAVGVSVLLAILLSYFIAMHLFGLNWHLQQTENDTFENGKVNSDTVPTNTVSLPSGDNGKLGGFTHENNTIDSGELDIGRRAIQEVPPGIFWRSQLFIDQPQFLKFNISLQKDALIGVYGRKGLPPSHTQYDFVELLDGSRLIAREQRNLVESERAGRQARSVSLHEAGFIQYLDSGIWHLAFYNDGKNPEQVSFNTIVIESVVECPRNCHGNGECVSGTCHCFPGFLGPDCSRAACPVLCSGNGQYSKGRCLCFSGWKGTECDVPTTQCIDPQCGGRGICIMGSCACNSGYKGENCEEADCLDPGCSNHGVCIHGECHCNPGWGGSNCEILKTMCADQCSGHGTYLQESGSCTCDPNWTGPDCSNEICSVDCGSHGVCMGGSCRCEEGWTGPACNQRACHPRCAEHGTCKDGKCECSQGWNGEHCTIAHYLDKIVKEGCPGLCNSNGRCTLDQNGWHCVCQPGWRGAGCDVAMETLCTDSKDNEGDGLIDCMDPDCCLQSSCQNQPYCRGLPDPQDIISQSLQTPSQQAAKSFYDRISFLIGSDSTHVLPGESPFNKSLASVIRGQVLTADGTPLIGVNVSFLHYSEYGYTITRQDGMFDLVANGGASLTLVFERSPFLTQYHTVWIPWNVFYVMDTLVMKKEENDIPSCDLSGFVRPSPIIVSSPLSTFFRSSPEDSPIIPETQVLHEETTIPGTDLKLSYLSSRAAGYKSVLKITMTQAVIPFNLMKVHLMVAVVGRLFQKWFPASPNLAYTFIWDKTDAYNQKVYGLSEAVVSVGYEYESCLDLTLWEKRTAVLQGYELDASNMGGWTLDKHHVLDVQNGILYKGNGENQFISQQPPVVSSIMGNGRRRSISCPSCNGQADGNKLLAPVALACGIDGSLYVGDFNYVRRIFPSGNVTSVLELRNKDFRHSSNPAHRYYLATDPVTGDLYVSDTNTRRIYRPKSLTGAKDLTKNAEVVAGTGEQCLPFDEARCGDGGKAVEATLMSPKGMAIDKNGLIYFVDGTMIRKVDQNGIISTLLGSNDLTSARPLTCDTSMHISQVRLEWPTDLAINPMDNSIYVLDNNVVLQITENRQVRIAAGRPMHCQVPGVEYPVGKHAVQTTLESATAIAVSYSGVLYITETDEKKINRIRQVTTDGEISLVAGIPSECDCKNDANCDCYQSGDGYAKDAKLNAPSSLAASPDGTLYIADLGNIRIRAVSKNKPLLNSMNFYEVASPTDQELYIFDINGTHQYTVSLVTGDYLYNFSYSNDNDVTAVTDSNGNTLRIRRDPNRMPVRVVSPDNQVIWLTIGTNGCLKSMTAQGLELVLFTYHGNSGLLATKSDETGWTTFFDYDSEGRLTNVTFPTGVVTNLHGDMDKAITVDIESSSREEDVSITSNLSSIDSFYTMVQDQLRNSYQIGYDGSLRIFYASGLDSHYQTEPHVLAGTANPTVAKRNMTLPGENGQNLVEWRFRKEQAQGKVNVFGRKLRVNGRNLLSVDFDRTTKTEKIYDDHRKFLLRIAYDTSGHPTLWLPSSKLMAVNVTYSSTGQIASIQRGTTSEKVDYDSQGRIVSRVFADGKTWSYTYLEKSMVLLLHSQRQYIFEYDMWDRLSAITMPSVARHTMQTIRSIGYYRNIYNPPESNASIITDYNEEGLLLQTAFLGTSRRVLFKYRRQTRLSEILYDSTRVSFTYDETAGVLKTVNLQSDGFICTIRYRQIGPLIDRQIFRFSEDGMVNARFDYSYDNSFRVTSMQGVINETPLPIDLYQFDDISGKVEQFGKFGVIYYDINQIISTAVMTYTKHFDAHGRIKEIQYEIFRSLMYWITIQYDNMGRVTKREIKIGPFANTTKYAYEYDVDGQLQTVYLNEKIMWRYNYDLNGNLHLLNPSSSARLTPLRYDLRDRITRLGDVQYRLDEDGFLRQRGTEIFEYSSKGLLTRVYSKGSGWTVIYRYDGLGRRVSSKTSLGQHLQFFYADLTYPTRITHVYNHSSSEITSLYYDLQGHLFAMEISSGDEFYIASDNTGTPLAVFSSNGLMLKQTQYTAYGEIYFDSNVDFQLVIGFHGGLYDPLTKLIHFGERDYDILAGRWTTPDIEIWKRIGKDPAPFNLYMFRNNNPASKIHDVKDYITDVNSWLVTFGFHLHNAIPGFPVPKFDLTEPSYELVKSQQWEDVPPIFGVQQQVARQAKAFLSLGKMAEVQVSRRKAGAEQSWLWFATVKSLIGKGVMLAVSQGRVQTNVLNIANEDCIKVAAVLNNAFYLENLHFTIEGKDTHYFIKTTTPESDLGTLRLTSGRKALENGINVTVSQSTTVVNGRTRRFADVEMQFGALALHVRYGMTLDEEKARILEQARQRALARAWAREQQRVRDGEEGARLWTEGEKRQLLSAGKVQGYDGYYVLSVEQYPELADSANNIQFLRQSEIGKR
UniProt Q9WTS5: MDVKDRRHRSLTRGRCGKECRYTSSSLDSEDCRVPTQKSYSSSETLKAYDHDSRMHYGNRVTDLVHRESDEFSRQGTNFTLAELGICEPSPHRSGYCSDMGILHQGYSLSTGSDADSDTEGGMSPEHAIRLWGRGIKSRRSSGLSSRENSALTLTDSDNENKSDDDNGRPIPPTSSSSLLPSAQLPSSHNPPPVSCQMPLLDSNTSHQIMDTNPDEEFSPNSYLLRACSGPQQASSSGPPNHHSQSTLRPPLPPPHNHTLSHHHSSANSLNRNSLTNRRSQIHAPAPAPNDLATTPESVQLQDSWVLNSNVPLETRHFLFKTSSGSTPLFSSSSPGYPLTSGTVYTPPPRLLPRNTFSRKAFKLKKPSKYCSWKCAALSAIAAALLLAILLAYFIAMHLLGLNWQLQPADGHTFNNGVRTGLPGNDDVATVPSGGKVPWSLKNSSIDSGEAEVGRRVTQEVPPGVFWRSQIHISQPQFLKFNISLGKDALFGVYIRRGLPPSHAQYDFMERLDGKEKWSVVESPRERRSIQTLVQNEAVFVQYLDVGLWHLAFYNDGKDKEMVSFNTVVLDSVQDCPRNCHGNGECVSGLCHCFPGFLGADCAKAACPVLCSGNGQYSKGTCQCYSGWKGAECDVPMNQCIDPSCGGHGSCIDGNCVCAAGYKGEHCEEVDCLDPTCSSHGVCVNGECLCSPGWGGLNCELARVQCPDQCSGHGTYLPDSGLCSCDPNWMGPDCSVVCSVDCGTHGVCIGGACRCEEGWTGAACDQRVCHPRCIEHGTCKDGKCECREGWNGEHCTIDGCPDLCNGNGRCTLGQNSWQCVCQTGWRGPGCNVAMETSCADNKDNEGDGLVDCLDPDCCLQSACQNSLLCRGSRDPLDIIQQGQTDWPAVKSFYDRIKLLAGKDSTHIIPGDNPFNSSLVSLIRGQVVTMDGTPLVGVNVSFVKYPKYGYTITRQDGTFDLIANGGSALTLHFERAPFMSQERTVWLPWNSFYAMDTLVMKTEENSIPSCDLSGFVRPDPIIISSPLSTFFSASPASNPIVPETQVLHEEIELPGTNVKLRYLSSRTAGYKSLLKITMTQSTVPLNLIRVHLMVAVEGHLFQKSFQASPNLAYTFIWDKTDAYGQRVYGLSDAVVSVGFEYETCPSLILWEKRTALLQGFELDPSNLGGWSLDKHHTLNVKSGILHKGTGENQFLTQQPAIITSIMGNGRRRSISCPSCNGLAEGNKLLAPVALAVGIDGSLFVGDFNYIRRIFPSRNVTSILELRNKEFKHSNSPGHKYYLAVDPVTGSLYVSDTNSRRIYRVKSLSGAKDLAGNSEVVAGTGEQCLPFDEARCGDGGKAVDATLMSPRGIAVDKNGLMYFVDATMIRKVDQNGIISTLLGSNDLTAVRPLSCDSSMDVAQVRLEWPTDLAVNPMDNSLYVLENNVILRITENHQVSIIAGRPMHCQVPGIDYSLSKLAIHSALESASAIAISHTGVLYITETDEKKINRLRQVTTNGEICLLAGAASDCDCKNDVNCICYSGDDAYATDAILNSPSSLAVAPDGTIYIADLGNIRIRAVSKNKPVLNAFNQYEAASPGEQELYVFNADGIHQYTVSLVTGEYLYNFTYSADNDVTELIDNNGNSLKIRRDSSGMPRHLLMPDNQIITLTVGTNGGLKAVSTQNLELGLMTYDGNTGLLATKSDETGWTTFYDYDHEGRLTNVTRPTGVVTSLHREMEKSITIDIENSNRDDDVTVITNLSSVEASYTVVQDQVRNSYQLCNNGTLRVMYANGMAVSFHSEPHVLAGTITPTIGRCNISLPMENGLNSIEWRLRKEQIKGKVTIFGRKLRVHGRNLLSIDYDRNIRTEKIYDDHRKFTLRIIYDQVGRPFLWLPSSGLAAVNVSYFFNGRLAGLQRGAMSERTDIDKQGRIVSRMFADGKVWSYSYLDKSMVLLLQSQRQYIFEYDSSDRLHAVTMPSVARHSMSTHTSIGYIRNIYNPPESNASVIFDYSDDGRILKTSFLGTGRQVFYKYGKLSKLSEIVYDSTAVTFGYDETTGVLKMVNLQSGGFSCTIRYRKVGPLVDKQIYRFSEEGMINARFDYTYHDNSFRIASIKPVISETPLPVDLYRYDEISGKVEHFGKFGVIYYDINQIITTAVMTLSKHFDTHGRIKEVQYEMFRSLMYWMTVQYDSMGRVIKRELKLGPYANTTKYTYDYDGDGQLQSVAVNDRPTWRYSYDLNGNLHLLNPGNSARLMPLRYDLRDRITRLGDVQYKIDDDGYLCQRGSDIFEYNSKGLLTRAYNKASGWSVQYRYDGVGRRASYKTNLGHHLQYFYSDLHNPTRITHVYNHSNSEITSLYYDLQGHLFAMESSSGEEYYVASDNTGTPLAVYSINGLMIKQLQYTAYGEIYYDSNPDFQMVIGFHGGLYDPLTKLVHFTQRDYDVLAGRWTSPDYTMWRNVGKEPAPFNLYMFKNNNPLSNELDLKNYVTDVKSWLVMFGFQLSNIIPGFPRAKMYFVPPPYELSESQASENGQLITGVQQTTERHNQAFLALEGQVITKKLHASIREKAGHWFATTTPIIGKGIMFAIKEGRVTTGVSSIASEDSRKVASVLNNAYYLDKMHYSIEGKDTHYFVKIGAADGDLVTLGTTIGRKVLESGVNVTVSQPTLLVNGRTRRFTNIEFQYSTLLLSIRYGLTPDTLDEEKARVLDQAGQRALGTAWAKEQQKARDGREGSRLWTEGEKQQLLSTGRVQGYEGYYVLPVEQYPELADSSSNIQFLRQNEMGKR

What was measured:
[1] = target: RIM1, purified recombinant (UniProt Q9JIR4); assay: imaging of recruitment into LLPS condensates; purified proteins; RIM1 and RIM-BP2 10 μM each (Fig. 2) or 20 μM each (Fig. 3), Tenm3 proteins 1 μM; iFluor-labelled proteins imaged; both purified
[2] = target: HA-tagged Tenm3^WT (UniProt Q9WTS6); assay: membrane-recruitment assay (imaging of transfected cells); transfected HEK293/HEK293T cells co-expressing Flag-tagged RIM1 or RIM-BP2 constructs with HA-tagged teneurins; Flag and HA epitopes imaged
[3] = target: Teneurin-1 (UniProt Q9WTS4); assay: as above
[4] = target: Teneurin-2 (UniProt Q9WTS5); assay: as above
[5] = target: Teneurin-4 (UniProt Q3UHK6); assay: as above

binding [1]: binds
B1: RIM-BP2, purified recombinant (protein, UniProt Q9JIR1 1-1049)
chain: MREAAERRQQLELEHEQALAILNAKQQEIQLLQQSKVRELEEKCRVQSEQFNLLSRDLEKFRQHAGSIDLLGSNSVALLDVPLAPGKPFSQYMNGLATSIHKGHEGPTGHYSVIGDYIPLSGDKLESPCVKPSFLLRSSSPRCRFESEMDDDRSSNKSKHSSSGKVHLCVARYSYNPFDGPNENPEAELPLTAGKYLYVYGDMDEDGFYEGELLDGQRGLVPSNFVDFIQDNESRFAGTLGSEQDQNFLNHSGISLERDSILHLHSPTQVDSGITDNGGGTLDVNIDDIGEDIVPYPRKITLIKQLAKSVIVGWEPPAVPPGWGTVSSYNVLVDKETRMSLALGRRTKALIEKLNTAACTYRISVQCVTSRGNSDELQCTLLVGKDVVVAPSQLRVDNITQISAQLSWLPTNSNYSHIIFLNEEELDIVKAARYKYQFFNLRPNMAYKVKVLAQPHQMPWQLPLEQREKDEACVEFSTLPAGPPAPPQDVTVQAGATTASVQVSWKPPALTPTGLSNGANVTGYGVYAKGQRVAEVIAPTANGAAVELVRLRSLEAKAVSVRTLSAQGESMDSALAAIPPDLLVPPAPHPRTAPPPKPLTSDMDTKDLGPHVKVDESWEQSRPPGPAHGHMLEPPDMHSTGPGRRSPSPSRILPQPQGAPVSTTVAKAMAREAAQRVAETSKLEKRSLFLEQSSAGPYANSDEEDGYASPEVKRRGTSVDDFLKGSELGQQPHCCHGDEYHTESSRGSDLSDIMEEDEEELYSEMQLEDGGRRRPSGTSHNALKILGNSALMGRGDRMEHVSRRYSHSGGGPQRHRPMAPSIDEYTGRDHLSPDFYDESETDPGAEELPARIFVALFDYDPLTMSPNPDAAEEELPFKEGQIIKVYGDKDADGFYRGETCARLGLIPCNMVSEIHADDEEMMDQLLRQGFLPLNTPVEKIERSRRSGRGHSVPTRRMVALYDYDPRESSPNVDVEAELLFCTGDIITVFGEIDEDGFYYGELNGQKGLVPSNFLEEVPDDVEVHLSDAPPHYSHDPPMRTKAKRVSQPP
modifications: labeled by iFluor-405 (imaging experiments)

binding [2]: no binding
binding [3]: no binding
binding [4]: no binding
binding [5]: no binding
B2: Flag-tagged RIM-BP2 (protein, UniProt Q9JIR1 1-1049)
chain: B1 chain
